# In US11629174B2, “Cryptic metabolites and method for activating silent biosynthetic gene clusters in actinomycete bacteria” (The Trustees of Princeton University, priority 2017, dated 2023):
# Some results were stated once for a whole list of compounds, not compound by compound.
# Test system: sur cluster metabolite production in ΔsurR S. albus
# Test: HPLC-Qtof-MS of secondary metabolome of ΔsurR strain treated with elicitor
# Type: cell-based, Streptomyces albus J1074
# [1] = estimated from lower limit of detection
structure (smiles),measurement,setting,value
COc1cc([C@@H]2c3cc4c(cc3[C@@H](O[C@@H]3O[C@@H]5CO[C@@H](C)O[C@H]5[C@H](O)[C@H]3O)[C@H]3COC(=O)[C@H]23)OCO4)cc(OC)c1O [etoposide],increase in the production of surugamide I,,> 35 fold
same,upregulation of acyl-surugamide A,[1],> 40 fold
same,upregulation of albucyclone A,[1],> 50 fold
